In patent publication US20250313900A1, “COMPOSITIONS AND THERAPEUTIC AGENTS FOR MODULATING INFLAMMATORY RESPONSES ON BOTH TUMOR AND IMMUNE CELLS” (THE METHODIST HOSPITAL, priority 2022, published 2025):
These are yes or no findings as the source states them, for the method shown. In cells and extracts the contact can be indirect. Some binding calls cover weakened binding; strength is not graded here.

By UniProt entry, the sequences of proteins in these tests, tags left out.
UniProt Q8IZR5: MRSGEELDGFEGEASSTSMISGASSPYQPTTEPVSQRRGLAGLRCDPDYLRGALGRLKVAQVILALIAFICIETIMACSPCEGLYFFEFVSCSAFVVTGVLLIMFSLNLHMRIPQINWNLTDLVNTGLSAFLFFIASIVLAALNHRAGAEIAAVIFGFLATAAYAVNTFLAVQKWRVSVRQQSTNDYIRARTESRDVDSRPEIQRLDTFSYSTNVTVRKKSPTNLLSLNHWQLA

Molecular target: T1, TRAF2 (in HCC827-CT cells) (human) (UniProt Q12933)
T1 sequence (looked up): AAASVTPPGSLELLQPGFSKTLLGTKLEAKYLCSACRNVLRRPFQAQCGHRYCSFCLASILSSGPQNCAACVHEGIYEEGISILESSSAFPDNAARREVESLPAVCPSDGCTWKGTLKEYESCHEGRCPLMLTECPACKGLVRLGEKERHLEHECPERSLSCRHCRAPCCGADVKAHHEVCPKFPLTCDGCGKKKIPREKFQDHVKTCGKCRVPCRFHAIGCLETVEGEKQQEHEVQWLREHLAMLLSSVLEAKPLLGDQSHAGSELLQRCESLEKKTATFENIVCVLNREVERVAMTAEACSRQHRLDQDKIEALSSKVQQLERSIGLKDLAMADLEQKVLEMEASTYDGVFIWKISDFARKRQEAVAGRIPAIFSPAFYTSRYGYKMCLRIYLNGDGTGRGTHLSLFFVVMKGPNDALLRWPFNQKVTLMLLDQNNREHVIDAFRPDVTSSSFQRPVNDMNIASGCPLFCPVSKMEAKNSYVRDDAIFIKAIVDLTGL
Experiment: co-immunoprecipitation and western blot

In the case of “CMTM4 in HCC827-CT cells (from UniProt Q8IZR5 1-234)”, the binding is reported as “binds”.
